The values that follow come from the supplement of paper PMC10735217.

The subject of this assay is HEK293A TEAD-LUC reporter. In words: TEAD-luciferase reporter activity (YAP activation), robust Z score vs plate; higher = stronger YAP/TEAD activation. The settings on record: 24 h. On the technique in general: In a reporter assay the amount or activity of a reporter protein is the signal.

Structures are written as SMILES. Where a name gives a salt, the structure may show the parent alone. Some of the results follow. This data set is noisy: repeats of one test often differ as much as different tests do.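 Human kidney-derived cells stably carry a construct in which eight TEAD-binding elements drive luciferase, measured by luminescence in a drug-repurposing library screen. A hit is any compound whose signal exceeds the plate mean by more than five robust Z scores.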

Turning to `CC(=O)N1CCC(NC(=O)c2ccc(F)cc2)CC1`, the TEAD-luciferase reporter activity by setting is: (compound concentration: 200 nM) inactive: -0.0605; (compound concentration: 2 uM) inactive: -1.4; (compound concentration: 10 uM) inactive: 1.27.

Take `CCCCCCCCCCCCNCC(O)CCCCCCCCCn1c(=O)c2c(ncn2C)n(C)c1=O` (centres undefined): the TEAD-luciferase reporter activity was inactive: -0.339 (compound concentration: 200 nM), inactive: -0.317 (compound concentration: 2 uM) and inactive: -0.969 (compound concentration: 10 uM).

`CN(C)CCOC1=Cc2ccccc2Sc2ccc(Cl)cc21` [zotepine]: the TEAD-luciferase reporter activity by setting is: (compound concentration: 200 nM) inactive: -1.04; (compound concentration: 2 uM) inactive: -0.117; (compound concentration: 10 uM) inactive: 3.35.

As to `CCOc1ccc(NC(=S)Nc2ccc(OCC)cc2)cc1`, the TEAD-luciferase reporter activity (compound concentration: 200 nM) is inactive: -0.141, the TEAD-luciferase reporter activity (compound concentration: 2 uM) was inactive: 1.6 and the TEAD-luciferase reporter activity (compound concentration: 10 uM) was inactive: -1.35.

On to `O=C(O)CCCC(=O)N1Cc2ccccc2CC2(CCCN2Cc2ccccc2)C1` (centres undefined), for which the TEAD-luciferase reporter activity by setting is: (compound concentration: 200 nM) inactive: 1.09; (compound concentration: 10 uM) inactive: 2.33.

Regarding `CCN(CC)C(=S)SSC(=S)N(CC)CC` [Disulfiram], the TEAD-luciferase reporter activity (compound concentration: 2 uM) is inactive: -0.124.

As for `CCN(CC)C(=S)SSC(=S)N(CC)CC`, the TEAD-luciferase reporter activity is, setting by setting: (compound concentration: 200 nM) inactive: -1.05; (compound concentration: 10 uM) inactive: -4.33.

On to `O=C(O)c1ccc(NC2OC(CO)C(O)C2O)cc1` (centres undefined), for which the TEAD-luciferase reporter activity is inactive: -1.5 (compound concentration: 200 nM), inactive: -0.258 (compound concentration: 2 uM) and inactive: -0.898 (compound concentration: 10 uM).

As for `CN1CCN(C2=Nc3ccccc3Nc3ccc(OS(=O)(=O)C(F)(F)F)cc32)CC1`, the TEAD-luciferase reporter activity (compound concentration: 200 nM) is inactive: 1.39, the TEAD-luciferase reporter activity (compound concentration: 2 uM) is inactive: 0.807 and the TEAD-luciferase reporter activity (compound concentration: 10 uM) is inactive: 2.67.

On to `CCOC(=O)C1=C(c2ccc(-n3c(C)nc4cnccc43)cc2)NC(C)=C(C(=O)Nc2ccccn2)C1c1ccccc1Cl` (centres undefined), for which the TEAD-luciferase reporter activity runs as follows: (compound concentration: 200 nM) inactive: 0.0974; (compound concentration: 2 uM) inactive: 0.476; (compound concentration: 10 uM) inactive: 1.05.

On to `Cc1ccc(B(OC(=O)c2ncccc2O)c2cccc(Cl)c2)cc1Cl`, for which the TEAD-luciferase reporter activity is, setting by setting: (compound concentration: 200 nM) inactive: 1.33; (compound concentration: 2 uM) inactive: -0.154; (compound concentration: 10 uM) inactive: 1.95.

As for `CN(C)Cc1ccc(S(=O)(=O)n2ccc(/C=C/C(=O)NO)c2)cc1` [resminostat], where the note is “compound concentration: 2 uM”, the TEAD-luciferase reporter activity was active: 16.9.

For the compound `CN(C)Cc1ccc(S(=O)(=O)n2ccc(/C=C/C(=O)NO)c2)cc1` [Resminostat (RAS2410)], the TEAD-luciferase reporter activity is, setting by setting: (compound concentration: 200 nM) inactive: 3.89; (compound concentration: 10 uM) active: 24.5.

For `CCCCC/C=C\C/C=C\C/C=C\CCCCCCC(=O)O`, the TEAD-luciferase reporter activity was inactive: -0.8 (compound concentration: 200 nM), inactive: -1.86 (compound concentration: 2 uM) and inactive: 0.26 (compound concentration: 10 uM).

Turning to `CN1C(=O)c2ccccc2C(O)c2ccccc21` (centres undefined), the TEAD-luciferase reporter activity reads like this: (compound concentration: 200 nM) inactive: -2.09; (compound concentration: 2 uM) inactive: 0.797; (compound concentration: 10 uM) inactive: -0.938.

As for `CN(C)[C@@H]1C(=O)C(C(=O)NCN2CCCC2)C(=O)[C@@]2(O)C(=O)C3C(=O)c4c(O)cccc4[C@@](C)(O)[C@H]3C[C@@H]12` (some centres undefined) [Rolitetracycline], the TEAD-luciferase reporter activity (compound concentration: 200 nM) is inactive: -0.0561, the TEAD-luciferase reporter activity (compound concentration: 2 uM) is inactive: -0.856 and the TEAD-luciferase reporter activity (compound concentration: 10 uM) was inactive: -0.142.

Take `O=C(c1ccccc1)c1cccc(NS(=O)(=O)C(F)F)c1` [diflumidone]: the TEAD-luciferase reporter activity by setting is: (compound concentration: 200 nM) inactive: 1.01; (compound concentration: 2 uM) inactive: -0.175; (compound concentration: 10 uM) inactive: -1.41.

As for `O=c1[nH]c(=O)n([C@H]2C[C@H](O)[C@@H](CO)O2)cc1C(F)(F)F` [trifluridine], the TEAD-luciferase reporter activity by setting is: (compound concentration: 200 nM) inactive: -0.612; (compound concentration: 2 uM) inactive: -1.21; (compound concentration: 10 uM) inactive: -0.693.

Take `Cc1onc(-c2c(F)cccc2Cl)c1C(=O)N[C@@H]1C(=O)N2[C@@H]1SC(C)(C)[C@@H]2C(=O)O` [Flucloxacillin sodium]: the TEAD-luciferase reporter activity (compound concentration: 200 nM) is inactive: -2.71, the TEAD-luciferase reporter activity (compound concentration: 2 uM) is inactive: -0.977 and the TEAD-luciferase reporter activity (compound concentration: 10 uM) was inactive: 0.381.

Regarding `CCOC(=O)C1CCN(c2nc(N(C)S(=O)(=O)c3ccc(C#N)cc3)ccc2[N+](=O)[O-])CC1`, the TEAD-luciferase reporter activity (compound concentration: 200 nM) was inactive: -0.417, the TEAD-luciferase reporter activity (compound concentration: 2 uM) is inactive: -0.435 and the TEAD-luciferase reporter activity (compound concentration: 10 uM) is inactive: -0.484.

Regarding `O=C([C@@H]1C[C@H](N2CCN(c3ncccn3)CC2)CN1)N1CCC(F)(F)C1` [Gosogliptin hydrochloride], the TEAD-luciferase reporter activity is inactive: 0.161 (compound concentration: 200 nM), inactive: 0.345 (compound concentration: 2 uM) and inactive: 1.59 (compound concentration: 10 uM).

Regarding `CCCCNc1ccc(C(=O)OCCOCCOCCOCCOCCOCCOCCOCCOCCOC)cc1` [benzonatate polacrilex, Alitair], the TEAD-luciferase reporter activity is inactive: -1.1 (compound concentration: 200 nM) and inactive: -1.69 (compound concentration: 10 uM).

Regarding `CCCCNc1ccc(C(=O)OCCOCCOCCOCCOCCOCCOCCOCCOCCOC)cc1` [benzonatate polacrilex], the TEAD-luciferase reporter activity (compound concentration: 2 uM) is inactive: -0.929.

With `Cc1cccc(C)c1NC(=O)CN1CCN([C@H]2CCN(C(=O)c3cc(C(F)(F)F)cc(C(F)(F)F)c3)[C@H](Cc3ccccc3)C2)CC1`, the TEAD-luciferase reporter activity is, setting by setting: (compound concentration: 200 nM) inactive: -1.2; (compound concentration: 2 uM) inactive: 1.82; (compound concentration: 10 uM) inactive: 0.752.

As to `CO/N=C(/C(=O)NC1C(=O)N2C(C(=O)[O-])=C(CSc3nc(=O)c(O)nn3C)CSC12)c1csc(N)n1` (centres undefined) [ceftriaxone], the TEAD-luciferase reporter activity by setting is: (compound concentration: 200 nM) inactive: -0.87; (compound concentration: 10 uM) inactive: 1.13.
